Reference: publication doi:10.1101/2021.10.04.463067
Numbering of substitutions follows the chain as printed. Like-named read-outs stand apart in the source and are kept apart here. These are yes or no findings as the source states them, for the method shown. In cells and extracts the contact can be indirect. Some results given as binding are weak or reduced against the parent protein; the word gives no strength. For part of these data: Tags and fused reporters may be left off the sequences shown.

By UniProt entry, the sequences of proteins in these tests, tags left out. Where a name states a change or a piece, a line headed by the entry shows the natural chain unless it says otherwise.
UniProt Q9UI95: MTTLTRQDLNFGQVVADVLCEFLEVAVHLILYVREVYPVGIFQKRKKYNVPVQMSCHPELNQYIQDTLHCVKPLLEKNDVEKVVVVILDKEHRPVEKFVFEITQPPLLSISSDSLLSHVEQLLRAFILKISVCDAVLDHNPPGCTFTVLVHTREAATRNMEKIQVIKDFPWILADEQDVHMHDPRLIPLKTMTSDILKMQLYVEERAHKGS

How the values were obtained:
Test in all cases: co-IP
GFP-SHLD3 = target: T1, GFP-SHLD3 (UniProt Q6ZNX1)
T1 sequence: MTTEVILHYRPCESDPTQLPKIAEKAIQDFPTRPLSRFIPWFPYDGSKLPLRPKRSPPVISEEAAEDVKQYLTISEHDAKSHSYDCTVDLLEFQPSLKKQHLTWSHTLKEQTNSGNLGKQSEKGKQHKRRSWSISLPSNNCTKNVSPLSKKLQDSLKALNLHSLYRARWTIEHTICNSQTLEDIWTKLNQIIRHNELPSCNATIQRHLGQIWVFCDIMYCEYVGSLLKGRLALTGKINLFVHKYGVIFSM

[1] = target: T2, GFP-CHAMP1 wild-type (CHAMP1-Full Length) (UniProt Q96JM3)
T2 sequence: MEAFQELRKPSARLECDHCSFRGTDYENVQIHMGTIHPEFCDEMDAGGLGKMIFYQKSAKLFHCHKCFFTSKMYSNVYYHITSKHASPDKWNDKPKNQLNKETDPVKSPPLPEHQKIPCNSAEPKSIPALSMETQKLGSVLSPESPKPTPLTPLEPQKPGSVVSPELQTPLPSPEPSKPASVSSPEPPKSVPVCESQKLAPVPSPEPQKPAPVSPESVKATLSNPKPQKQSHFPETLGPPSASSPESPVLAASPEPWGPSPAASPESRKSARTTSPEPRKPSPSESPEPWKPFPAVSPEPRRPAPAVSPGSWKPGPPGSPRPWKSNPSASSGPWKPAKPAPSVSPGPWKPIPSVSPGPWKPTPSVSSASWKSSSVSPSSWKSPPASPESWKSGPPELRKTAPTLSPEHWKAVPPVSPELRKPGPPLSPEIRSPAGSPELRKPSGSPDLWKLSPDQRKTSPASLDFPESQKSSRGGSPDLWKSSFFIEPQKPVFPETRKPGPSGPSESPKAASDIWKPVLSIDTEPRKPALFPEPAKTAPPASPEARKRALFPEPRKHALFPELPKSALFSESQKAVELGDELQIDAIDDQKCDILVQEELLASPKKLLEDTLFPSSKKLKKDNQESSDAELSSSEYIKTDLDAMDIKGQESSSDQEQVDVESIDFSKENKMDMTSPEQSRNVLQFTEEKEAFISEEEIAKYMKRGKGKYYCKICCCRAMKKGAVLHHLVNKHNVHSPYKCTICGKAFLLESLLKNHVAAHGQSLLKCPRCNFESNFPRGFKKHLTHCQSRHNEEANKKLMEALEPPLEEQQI

[2] = target: T3, GFP-CHAMP1-2A mutant (W334A/K335A) (UniProt Q96JM3)
T3 sequence: T2 sequence with W334A, K335A

[3] = target: T2, GFP-CHAMP1 wild-type (CHAMP1-Full Length); remark: listed apart in the source
Flag-REV7 wild type = Flag-REV7 wild type (UniProt Q9UI95)
[4] = target: endogenous REV7 (human (endogenous in U2OS and HEK293T)) (UniProt Q9UI95)
GFP-REV7 = GFP-REV7 (UniProt Q9UI95)
Flag-REV7-T103A = Flag-REV7-T103A (UniProt Q9UI95)
[5] = target: T2, GFP-CHAMP1 wild-type (CHAMP1-Full Length); remark: listed apart in the source

Molecule: Flag-REV7 wild type (from UniProt Q9UI95 1-211)
- binding (GFP-SHLD3): binds

Molecule: Flag-REV7-T103A (from UniProt Q9UI95 1-211)
- binding (GFP-SHLD3): binds

Molecule: endogenous REV7 (from UniProt Q9UI95 1-211)
- binding [1]: binds
- binding [2]: no binding
- binding (GFP-SHLD3): binds
- binding [3]: binds

B1: endogenous CHAMP1 (protein, UniProt Q96JM3 1-812)
chain: T2 sequence
- binding (Flag-REV7 wild type): binds
- binding [4]: binds
- binding (GFP-REV7): binds
- binding (Flag-REV7-T103A): binds

B2: endogenous POGZ (protein, UniProt Q7Z3K3 1-1410)
chain: MADTDLFMECEEEELEPWQKISDVIEDSVVEDYNSVDKTTTVSVSQQPVSAPVPIAAHASVAGHLSTSTTVSSSGAQNSDSTKKTLVTLIANNNAGNPLVQQGGQPLILTQNPAPGLGTMVTQPVLRPVQVMQNANHVTSSPVASQPIFITTQGFPVRNVRPVQNAMNQVGIVLNVQQGQTVRPITLVPAPGTQFVKPTVGVPQVFSQMTPVRPGSTMPVRPTTNTFTTVIPATLTIRSTVPQSQSQQTKSTPSTSTTPTATQPTSLGQLAVQSPGQSNQTTNPKLAPSFPSPPAVSIASFVTVKRPGVTGENSNEVAKLVNTLNTIPSLGQSPGPVVVSNNSSAHGSQRTSGPESSMKVTSSIPVFDLQDGGRKICPRCNAQFRVTEALRGHMCYCCPEMVEYQKKGKSLDSEPSVPSAAKPPSPEKTAPVASTPSSTPIPALSPPTKVPEPNENVGDAVQTKLIMLVDDFYYGRDGGKVAQLTNFPKVATSFRCPHCTKRLKNNIRFMNHMKHHVELDQQNGEVDGHTICQHCYRQFSTPFQLQCHLENVHSPYESTTKCKICEWAFESEPLFLQHMKDTHKPGEMPYVCQVCQYRSSLYSEVDVHFRMIHEDTRHLLCPYCLKVFKNGNAFQQHYMRHQKRNVYHCNKCRLQFLFAKDKIEHKLQHHKTFRKPKQLEGLKPGTKVTIRASRGQPRTVPVSSNDTPPSALQEAAPLTSSMDPLPVFLYPPVQRSIQKRAVRKMSVMGRQTCLECSFEIPDFPNHFPTYVHCSLCRYSTCCSRAYANHMINNHVPRKSPKYLALFKNSVSGIKLACTSCTFVTSVGDAMAKHLVFNPSHRSSSILPRGLTWIAHSRHGQTRDRVHDRNVKNMYPPPSFPTNKAATVKSAGATPAEPEELLTPLAPALPSPASTATPPPTPTHPQALALPPLATEGAECLNVDDQDEGSPVTQEPELASGGGGSGGVGKKEQLSVKKLRVVLFALCCNTEQAAEHFRNPQRRIRRWLRRFQASQGENLEGKYLSFEAEEKLAEWVLTQREQQLPVNEETLFQKATKIGRSLEGGFKISYEWAVRFMLRHHLTPHARRAVAHTLPKDVAENAGLFIDFVQRQIHNQDLPLSMIVAIDEISLFLDTEVLSSDDRKENALQTVGTGEPWCDVVLAILADGTVLPTLVFYRGQMDQPANMPDSILLEAKESGYSDDEIMELWSTRVWQKHTACQRSKGMLVMDCHRTHLSEEVLAMLSASSTLPAVVPAGCSSKIQPLDVCIKRTVKNFLHKKWKEQAREMADTACDSDVLLQLVLVWLGEVLGVIGDCPELVQRSFLVASVLPGPDGNINSPTRNADMQEELIASLEEQLKLSGEHSESSTPRPRSSPEETIEPESLHQLFEGESETESFYGFEEADLDLMEI
- binding (GFP-REV7): binds
- binding [5]: binds
